Source: article PMC11612773 (2024)
Results are given in words; binding and its absence hold for the method and conditions named. In cells and extracts the contact can be indirect. Some results given as binding are weak or reduced against the parent protein; the word gives no strength. Tags and fused reporters may be left off the sequences shown.

T1: LEA14 (LATE EMBRYOGENESIS ABUNDANT PROTEIN 14, dehydrin, At2G21490) split-YFP fusion (Arabidopsis thaliana) (UniProt Q96261)
T1 sequence: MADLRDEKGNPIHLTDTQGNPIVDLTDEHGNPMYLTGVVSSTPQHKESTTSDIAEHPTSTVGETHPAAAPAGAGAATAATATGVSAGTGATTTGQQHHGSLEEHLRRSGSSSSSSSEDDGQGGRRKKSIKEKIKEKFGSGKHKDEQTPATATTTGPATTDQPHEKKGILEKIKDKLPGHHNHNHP


Assays:
[1] = target: T1, LEA14 (LATE EMBRYOGENESIS ABUNDANT PROTEIN 14, dehydrin, At2G21490) split-YFP fusion (Arabidopsis thaliana); assay: split reporter; split YFP Venus fusions, transient expression in Nicotiana benthamiana leaves by Agrobacterium infiltration, leaf disks viewed up to 5 days
[2] = target: T1, LEA14 (LATE EMBRYOGENESIS ABUNDANT PROTEIN 14, dehydrin, At2G21490) split-YFP fusion (Arabidopsis thaliana); assay: split reporter; split YFP Venus fusions (LEA14y:LEA14fp), stable transformation of Arabidopsis thaliana, embryos viewed

Binder	binding [1]	binding [2]
LEA14 (LATE EMBRYOGENESIS ABUNDANT PROTEIN 14, dehydrin, At2G21490) split-YFP fusion (protein, UniProt Q96261 1-185) MADLRDEKGNPIHLTDTQGNPIVDLTDEHGNPMYLTGVVSSTPQHKESTTSDIAEHPTSTVGETHPAAAPAGAGAATAATATGVSAGTGATTTGQQHHGSLEEHLRRSGSSSSSSSEDDGQGGRRKKSIKEKIKEKFGSGKHKDEQTPATATTTGPATTDQPHEKKGILEKIKDKLPGHHNHNHP	binds	binds
PLASTID-ENCODED RNA POLYMERASE-ASSOCIATED PROTEIN 12 (PAP12, AT5G24314) split-YFP fusion (protein, UniProt Q8VZV9 33-161) CGIQRDDNGRRVWRRRTLTKKDDMLRYKMQRVPFVEEQVRKIREVGKVMTMDIEQLLLREDNRFEFVNSVAAEATEYVDKNRDEYGGSKKAIFHVLSNRVNDLGFDRPEAYVEADPYKPGPGYLLEYYT	no binding	

Second part, the binder after the results:

binding [1]	binding [2]	Binder
binds		SEED STORAGE ALBUMIN 4 (SESA4, AT4G27170) split-YFP fusion (protein, UniProt P15460 22-166) SVYRTVVEFDEDDASNPIGPIQKCQKEFQQDQHLRACQRWMRKQMWQGRGGGPSLDDEFDMEDDIENPQRRQLLQKCCSELRQEEPVCVCPTLRQAAKAVRFQGQQHQPEQVRKIYQAAKYLPNICKIQQVGVCPFQIPSIPSYY
binds		…OPEPTIDE REPEAT PROTEIN 596 (PPR596, AT1G80270) split-YFP fusion (protein, UniProt Q9C977 70-596) SDQEEDDLEDGFSELEGSKSGQGSTSSDEDEGKLSADEEEEEELDLIETDVSRKTVEKKQSELFKTIVSAPGLSIGSALDKWVEEGNEITRVEIAKAMLQLRRRRMYGRALQMSEWLEANKKIEMTERDYASRLDLTVKIRGLEKGEACMQKIPKSFKGEVLYRTLLANCVAAGNVKKSELVFNKMKDLGFPLSGFTCDQMLLLHKRIDRKKIADVLLLMEKENIKPSLLTYKILIDVKGATNDISGMEQILETMKDEGVELDFQTQALTARHYSGAGLKDKAEKVLKEMEGESLEANRRAFKDLLSIYASLGREDEVKRIWKICESKPYFEESLAAIQAFGKLNKVQEAEAIFEKIVKMDRRASSSTYSVLLRVYVDHKMLSKGKDLVKRMAESGCRIEATTWDALIKLYVEAGEVEKADSLLDKASKQSHTKLMMNSFMYIMDEYSKRGDVHNTEKIFLKMREAGYTSRLRQFQALMQAYINAKSPAYGMRDRLKADNIFPNKSMAAQLAQGDPFKKTAISDILD
